Experimental data taken from US10702592B2, “Peptides and combination of peptides for use in immunotherapy against NHL and other cancers” (Immatics Biotechnologies GmbH, priority 2016, dated 2020).

What was measured:
[1] = test system: NHL samples; assay: Identification and label-free LC-MS quantitation of HLA-presented peptides: presentation profile/score, NHL vs normal tissues; set-up: species or system human; key: very highly over-presented on tumors compared to a panel of normal tissues (+++); highly over-presented on tumors compared to a panel of normal tissues (++); over-presented on tumors compared to a panel of normal tissues (+); conditions: NHL tumors compared to a panel of normal tissues
[2] = test system: other tumor types (tumor samples vs normal tissues); assay: LC-MS detection / over-presentation of peptides on additional tumor types; set-up: species or system human; conditions: for Other relevant organs/diseases: additional tumor types on which the peptide was found: over-presented on more than 5% of measured tumor samples, or presented on more than 5% with ratio of geometric means tumor vs normal tissues larger than 3; for Other relevant organs / diseases (additional tumor types with over-presentation): over-presented on >5% of measured tumor samples, or presented on >5% with ratio of geometric means tumor vs normal >3

Row | Substance | Peptide Presentation [1] | Other relevant organs/diseases [2] | Other relevant organs / diseases (additional tumor types with over-presentation) [2]
1 | 143 (TLHAVDVTL; listed as Homo sapiens) [compound 143] | +++ |  | 
2 | 92 (KLLFEIASA; listed as Homo sapiens) [compound 92] | +++ | CLL, AML | 
3 | 12 (GLLLLVPLL; listed as Homo sapiens) [compound 12] | +++ | Melanoma, Gallbladder Cancer, Bile Duct Cancer | OC, Esophageal Cancer, HNSCC
4 | 23 (ALVEDIINL; listed as Homo sapiens) [compound 23] | +++ | CRC, BRCA, Melanoma, Uterine Cancer | Urinary Bladder Cancer, AML, HNSCC
5 | 114 (GLSDISPST; listed as Homo sapiens) [compound 114] | +++ | CLL, Uterine Cancer | 
6 | 126 (GLSIFIYRL; listed as Homo sapiens) [compound 126] | +++ | Melanoma, Urinary bladder cancer | 
7 | 102 (SLFAAISGMIL; listed as Homo sapiens) [compound 102] | +++ | CLL | 
8 | 178 (YVLQGEFFL; listed as Homo sapiens) [compound 178] | +++ |  | 
9 | 72 (TLQEETAVYL; listed as Homo sapiens) [compound 72] | +++ |  | 
10 | 160 (LLPPPSPAA; listed as Homo sapiens) [compound 160] | +++ |  | 
11 | 5 (VLQGLTFTL; listed as Homo sapiens) [compound 5] | +++ | SCLC, CLL, BRCA, Melanoma, OC, Urinary bladder cancer, Uterine Cancer, Gallbladder Cancer, Bile Duct Cancer | HNSCC
12 | 3 (LTIDTQYYL; listed as Homo sapiens) [compound 3] | +++ | CLL, Uterine Cancer | HNSCC
13 | 173 (VILDSVASV; listed as Homo sapiens) [compound 173] | +++ |  | 
14 | 111 (YLLDTLLSL; listed as Homo sapiens) [compound 111] | +++ |  | AML, HNSCC
15 | 289 (SLLAANNLL; listed as Homo sapiens) [compound 289] | +++ | HCC, Uterine Cancer, Gallbladder Cancer, Bile Duct Cancer | AML
16 | 266 (QLTEMLPSI; listed as Homo sapiens) [compound 266] | +++ | SCLC, HCC, Melanoma, Gallbladder Cancer, Bile Duct Cancer | 
17 | 101 (SLDQSTWNV; listed as Homo sapiens) [compound 101] | +++ | CLL | 
18 | 299 (RLLEEEGVSL; listed as Homo sapiens) [compound 299] | + | CRC, AML, BRCA | Melanoma
19 | 271 (YLLDQPVLEQRL; listed as Homo sapiens) [compound 271] | +++ | CLL, Melanoma | 
20 | 237 (YLDRLIPQA; listed as Homo sapiens) [compound 237] | ++ | HCC, AML, Melanoma | 
21 | 269 (VLQNVAFSV; listed as Homo sapiens) [compound 269] | +++ |  | 
22 | 6 (TLITLPLLFL; listed as Homo sapiens) [compound 6] | +++ | CLL, Melanoma | 
23 | 105 (VLTPVILQV; listed as Homo sapiens) [compound 105] | +++ | CLL, AML | 

Row | Substance | Peptide Presentation [1] | Other relevant organs/diseases [2] | Other relevant organs / diseases (additional tumor types with over-presentation) [2]
24 | 142 (FLYEDSKSVRL; listed as Homo sapiens) [compound 142] | +++ |  | 
25 | 76 (ALADLVPVDVVV; listed as Homo sapiens) [compound 76] | +++ | SCLC, CLL, BRCA, Melanoma, Uterine Cancer | HNSCC
26 | 60 (SLLIDVITV; listed as Homo sapiens) [compound 60] | +++ | CLL, Melanoma, Urinary bladder cancer, Uterine Cancer | NSCLC, SCLC, GC, CRC, PC, BRCA, AML
27 | 109 (YLFQFSAAL; listed as Homo sapiens) [compound 109] | +++ | RCC, PC | HNSCC
28 | 273 (AILLPQPPK; listed as Homo sapiens) [compound 273] | +++ | RCC, CLL, Melanoma, OC | 
29 | 270 (VVVDSDSLAFV; listed as Homo sapiens) [compound 270] | +++ | SCLC, CLL, Melanoma, Uterine Cancer, Gallbladder Cancer, Bile Duct Cancer | 
30 | 275 (KLMDLEDCAL; listed as Homo sapiens) [compound 275] | +++ |  | 
31 | 103 (SLQDHLEKV; listed as Homo sapiens) [compound 103] | +++ | HCC, CLL | Uterine Cancer
32 | 75 (AALKYIPSV; listed as Homo sapiens) [compound 75] | +++ |  | 
33 | 89 (GLTALHVAV; listed as Homo sapiens) [compound 89] | +++ |  | 
34 | 272 (KLDHTLSQI; listed as Homo sapiens) [compound 272] | +++ |  | 
35 | 139 (FLASPLVAI; listed as Homo sapiens) [compound 139] | +++ |  | 
36 | 135 (ALTGLQFQL; listed as Homo sapiens) [compound 135] | +++ |  | 
37 | 156 (KMLEDDLKL; listed as Homo sapiens) [compound 156] | +++ |  | 
38 | 298 (ALTDVILCV; listed as Homo sapiens) [compound 298] | + |  | 
39 | 145 (GLLHEVVSL; listed as Homo sapiens) [compound 145] | +++ |  | 
40 | 140 (FLFEDFVEV; listed as Homo sapiens) [compound 140] | +++ |  | 
41 | 22 (ALKKHLTSV; listed as Homo sapiens) [compound 22] | +++ |  | 
42 | 176 (YLHIYESQL; listed as Homo sapiens) [compound 176] | +++ |  | 
43 | 175 (VMESILLRL; listed as Homo sapiens) [compound 175] | +++ |  | 
44 | 155 (KLMTSLVKV; listed as Homo sapiens) [compound 155] | +++ |  | 
45 | 154 (KLMNIQQQL; listed as Homo sapiens) [compound 154] | +++ |  | 
46 | 157 (KVLEFLAKV; listed as Homo sapiens) [compound 157] | +++ |  | 

Row | Substance | Peptide Presentation [1] | Other relevant organs/diseases [2] | Other relevant organs / diseases (additional tumor types with over-presentation) [2]
47 | 123 (ALLSAFVQL; listed as Homo sapiens) [compound 123] | ++ |  | 
48 | 134 (ALGRLGILSV; listed as Homo sapiens) [compound 134] | +++ |  | 
49 | 150 (ILSEKEYKL; listed as Homo sapiens) [compound 150] | +++ |  | 
50 | 159 (LLLSDSGFYL; listed as Homo sapiens) [compound 159] | +++ |  | 
51 | 167 (SLFSITKSV; listed as Homo sapiens) [compound 167] | +++ |  | 
52 | 49 (TILGDPQILL; listed as Homo sapiens) [compound 49] | +++ |  | 
53 | 136 (FIFGIVHLL; listed as Homo sapiens) [compound 136] | +++ |  | 
54 | 172 (TLQDSLEFI; listed as Homo sapiens) [compound 172] | +++ |  | 
55 | 147 (GLSEYQRNFL; listed as Homo sapiens) [compound 147] | +++ |  | 
56 | 151 (ILVKQSPML; listed as Homo sapiens) [compound 151] | +++ |  | 
57 | 18 (KLTDQPPLV; listed as Homo sapiens) [compound 18] | +++ |  | 
58 | 170 (STIELSENSL; listed as Homo sapiens) [compound 170] | +++ |  | 
59 | 137 (FIQQERFFL; listed as Homo sapiens) [compound 137] | +++ |  | 
60 | 231 (IVMGAIPSV; listed as Homo sapiens) [compound 231] | + |  | 
61 | 196 (TLALAMIYL; listed as Homo sapiens) [compound 196] | ++ |  | 
62 | 162 (RLADLKVSI; listed as Homo sapiens) [compound 162] | +++ |  | 
63 | 112 (FLAILPEEV; listed as Homo sapiens) [compound 112] | +++ |  | 
64 | 153 (KLLKGIYAI; listed as Homo sapiens) [compound 153] | +++ |  | 
65 | 177 (YLYEAEEATTL; listed as Homo sapiens) [compound 177] | +++ |  | 
66 | 35 (SLSSERYYL; listed as Homo sapiens) [compound 35] | +++ |  | 
67 | 113 (FVIDSFEEL; listed as Homo sapiens) [compound 113] | +++ |  | 
68 | 276 (NMISYVVHL; listed as Homo sapiens) [compound 276] | +++ |  | 
